Test results reported in the supplement of paper PMC6411743.
± gives the standard deviation of the averaged measurements. This is a selection; strong and weak results do not stand in their true shares. Most entries show no effect beyond the scatter of the controls.

By UniProt entry, the sequences of proteins in these tests, tags left out. Where a name states a change or a piece, a line headed by the entry shows the natural chain unless it says otherwise.
UniProt Q96RT8, whole entry: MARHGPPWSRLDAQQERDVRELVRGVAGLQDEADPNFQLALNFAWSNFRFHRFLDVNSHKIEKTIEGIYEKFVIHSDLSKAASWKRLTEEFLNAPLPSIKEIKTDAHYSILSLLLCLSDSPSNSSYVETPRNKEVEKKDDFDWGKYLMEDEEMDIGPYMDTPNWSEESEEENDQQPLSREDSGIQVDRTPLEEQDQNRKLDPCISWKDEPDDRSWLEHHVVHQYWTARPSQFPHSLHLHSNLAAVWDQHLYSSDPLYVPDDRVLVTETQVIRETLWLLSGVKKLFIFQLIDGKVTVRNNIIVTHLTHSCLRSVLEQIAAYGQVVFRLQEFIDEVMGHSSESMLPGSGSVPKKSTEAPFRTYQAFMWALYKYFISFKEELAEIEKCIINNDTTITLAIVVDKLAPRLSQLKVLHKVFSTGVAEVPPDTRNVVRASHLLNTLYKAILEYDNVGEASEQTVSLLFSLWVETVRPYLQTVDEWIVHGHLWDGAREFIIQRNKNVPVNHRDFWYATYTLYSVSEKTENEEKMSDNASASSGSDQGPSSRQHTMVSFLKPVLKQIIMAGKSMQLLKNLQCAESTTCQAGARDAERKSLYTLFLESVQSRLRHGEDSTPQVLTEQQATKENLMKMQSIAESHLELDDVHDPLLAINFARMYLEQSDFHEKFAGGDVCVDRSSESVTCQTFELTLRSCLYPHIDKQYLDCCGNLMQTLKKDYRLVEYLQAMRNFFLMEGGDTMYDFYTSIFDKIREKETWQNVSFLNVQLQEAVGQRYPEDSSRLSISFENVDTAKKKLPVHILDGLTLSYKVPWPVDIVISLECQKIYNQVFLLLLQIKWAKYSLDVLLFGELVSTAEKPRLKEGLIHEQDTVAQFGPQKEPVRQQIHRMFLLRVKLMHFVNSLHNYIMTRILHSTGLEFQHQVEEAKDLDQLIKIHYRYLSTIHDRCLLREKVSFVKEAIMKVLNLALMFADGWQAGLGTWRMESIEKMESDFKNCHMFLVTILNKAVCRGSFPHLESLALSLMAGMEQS
UniProt Q96MY1: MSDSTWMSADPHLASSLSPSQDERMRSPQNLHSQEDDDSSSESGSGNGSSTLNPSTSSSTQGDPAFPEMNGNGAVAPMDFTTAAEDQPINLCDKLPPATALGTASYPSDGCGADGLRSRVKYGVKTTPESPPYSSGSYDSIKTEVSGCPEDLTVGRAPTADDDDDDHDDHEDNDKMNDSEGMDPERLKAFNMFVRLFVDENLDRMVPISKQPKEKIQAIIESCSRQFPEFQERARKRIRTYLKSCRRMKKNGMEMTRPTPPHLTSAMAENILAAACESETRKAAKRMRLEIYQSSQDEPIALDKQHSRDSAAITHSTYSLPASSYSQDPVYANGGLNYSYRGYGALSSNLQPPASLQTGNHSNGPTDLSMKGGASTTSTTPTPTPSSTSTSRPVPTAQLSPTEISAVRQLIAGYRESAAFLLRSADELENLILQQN
UniProt Q9UQN3, whole entry: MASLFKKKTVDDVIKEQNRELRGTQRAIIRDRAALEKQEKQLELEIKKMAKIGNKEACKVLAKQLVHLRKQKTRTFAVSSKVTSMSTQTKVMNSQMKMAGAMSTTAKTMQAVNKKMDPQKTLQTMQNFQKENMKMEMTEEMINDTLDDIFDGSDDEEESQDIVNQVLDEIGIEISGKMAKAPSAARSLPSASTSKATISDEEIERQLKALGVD
UniProt P15923: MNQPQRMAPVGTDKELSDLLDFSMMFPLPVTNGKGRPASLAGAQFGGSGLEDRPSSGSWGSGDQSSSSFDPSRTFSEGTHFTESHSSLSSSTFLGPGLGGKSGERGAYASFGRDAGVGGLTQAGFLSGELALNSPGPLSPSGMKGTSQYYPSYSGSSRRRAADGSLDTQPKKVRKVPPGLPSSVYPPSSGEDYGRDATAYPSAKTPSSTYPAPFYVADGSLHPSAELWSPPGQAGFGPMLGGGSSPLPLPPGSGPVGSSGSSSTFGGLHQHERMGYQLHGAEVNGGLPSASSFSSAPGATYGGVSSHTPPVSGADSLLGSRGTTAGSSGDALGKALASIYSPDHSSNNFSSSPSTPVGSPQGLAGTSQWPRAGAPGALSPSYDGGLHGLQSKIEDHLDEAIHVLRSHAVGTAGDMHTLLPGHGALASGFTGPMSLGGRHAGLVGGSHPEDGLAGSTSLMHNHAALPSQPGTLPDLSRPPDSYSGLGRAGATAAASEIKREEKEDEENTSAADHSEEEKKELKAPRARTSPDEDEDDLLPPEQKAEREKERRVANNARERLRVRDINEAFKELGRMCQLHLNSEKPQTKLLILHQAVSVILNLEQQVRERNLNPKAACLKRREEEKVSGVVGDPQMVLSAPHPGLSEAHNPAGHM
UniProt Q5VT25: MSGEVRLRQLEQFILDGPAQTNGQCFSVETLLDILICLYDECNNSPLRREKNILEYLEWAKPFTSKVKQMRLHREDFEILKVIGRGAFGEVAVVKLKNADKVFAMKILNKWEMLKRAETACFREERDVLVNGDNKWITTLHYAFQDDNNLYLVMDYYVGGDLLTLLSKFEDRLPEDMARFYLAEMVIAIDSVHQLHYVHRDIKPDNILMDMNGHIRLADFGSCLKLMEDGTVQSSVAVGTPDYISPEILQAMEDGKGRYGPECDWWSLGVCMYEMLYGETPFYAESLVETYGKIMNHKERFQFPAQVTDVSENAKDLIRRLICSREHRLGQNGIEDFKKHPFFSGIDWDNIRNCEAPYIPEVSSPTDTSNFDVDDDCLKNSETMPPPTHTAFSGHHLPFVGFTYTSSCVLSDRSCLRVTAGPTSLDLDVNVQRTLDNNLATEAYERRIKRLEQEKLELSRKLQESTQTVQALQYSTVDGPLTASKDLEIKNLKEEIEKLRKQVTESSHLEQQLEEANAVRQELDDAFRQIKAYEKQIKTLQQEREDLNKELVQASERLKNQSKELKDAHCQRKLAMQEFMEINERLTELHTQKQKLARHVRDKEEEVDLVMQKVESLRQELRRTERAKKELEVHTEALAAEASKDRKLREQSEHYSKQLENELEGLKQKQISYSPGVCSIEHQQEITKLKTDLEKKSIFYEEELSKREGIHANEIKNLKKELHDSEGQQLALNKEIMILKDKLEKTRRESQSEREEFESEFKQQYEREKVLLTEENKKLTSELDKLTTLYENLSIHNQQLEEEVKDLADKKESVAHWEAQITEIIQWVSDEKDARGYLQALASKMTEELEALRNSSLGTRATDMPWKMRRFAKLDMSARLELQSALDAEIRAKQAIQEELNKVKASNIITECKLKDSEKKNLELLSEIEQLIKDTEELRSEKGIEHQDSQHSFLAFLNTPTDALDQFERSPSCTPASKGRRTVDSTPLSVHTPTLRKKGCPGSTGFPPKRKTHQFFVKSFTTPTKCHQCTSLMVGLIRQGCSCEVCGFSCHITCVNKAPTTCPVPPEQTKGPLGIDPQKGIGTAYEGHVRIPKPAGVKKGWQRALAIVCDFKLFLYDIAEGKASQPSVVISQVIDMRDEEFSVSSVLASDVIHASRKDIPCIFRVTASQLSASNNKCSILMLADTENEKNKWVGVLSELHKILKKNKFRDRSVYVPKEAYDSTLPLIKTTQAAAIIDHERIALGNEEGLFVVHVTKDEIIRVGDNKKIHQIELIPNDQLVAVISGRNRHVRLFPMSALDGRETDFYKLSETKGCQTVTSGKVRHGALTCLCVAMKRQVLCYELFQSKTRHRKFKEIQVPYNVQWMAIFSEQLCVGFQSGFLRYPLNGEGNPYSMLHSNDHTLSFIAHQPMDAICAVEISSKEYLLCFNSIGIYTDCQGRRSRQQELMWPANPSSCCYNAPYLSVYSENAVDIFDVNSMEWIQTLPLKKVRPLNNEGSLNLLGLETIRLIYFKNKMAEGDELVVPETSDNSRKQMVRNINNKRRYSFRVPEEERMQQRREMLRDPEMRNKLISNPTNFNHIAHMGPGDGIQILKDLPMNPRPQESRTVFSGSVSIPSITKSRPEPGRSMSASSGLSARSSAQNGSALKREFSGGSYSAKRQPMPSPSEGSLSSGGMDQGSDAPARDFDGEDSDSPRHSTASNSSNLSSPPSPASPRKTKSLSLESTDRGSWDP
UniProt Q14242: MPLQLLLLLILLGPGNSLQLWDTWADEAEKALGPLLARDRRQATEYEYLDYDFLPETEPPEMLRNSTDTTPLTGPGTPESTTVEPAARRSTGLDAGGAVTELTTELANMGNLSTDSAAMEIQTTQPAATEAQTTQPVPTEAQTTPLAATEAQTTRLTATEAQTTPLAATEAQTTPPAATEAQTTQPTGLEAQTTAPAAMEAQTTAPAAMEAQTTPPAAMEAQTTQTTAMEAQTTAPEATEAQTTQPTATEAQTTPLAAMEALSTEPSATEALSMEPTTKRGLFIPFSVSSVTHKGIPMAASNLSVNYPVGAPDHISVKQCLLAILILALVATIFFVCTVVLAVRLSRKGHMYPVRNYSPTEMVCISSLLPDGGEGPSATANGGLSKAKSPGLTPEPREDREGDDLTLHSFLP
UniProt P48200: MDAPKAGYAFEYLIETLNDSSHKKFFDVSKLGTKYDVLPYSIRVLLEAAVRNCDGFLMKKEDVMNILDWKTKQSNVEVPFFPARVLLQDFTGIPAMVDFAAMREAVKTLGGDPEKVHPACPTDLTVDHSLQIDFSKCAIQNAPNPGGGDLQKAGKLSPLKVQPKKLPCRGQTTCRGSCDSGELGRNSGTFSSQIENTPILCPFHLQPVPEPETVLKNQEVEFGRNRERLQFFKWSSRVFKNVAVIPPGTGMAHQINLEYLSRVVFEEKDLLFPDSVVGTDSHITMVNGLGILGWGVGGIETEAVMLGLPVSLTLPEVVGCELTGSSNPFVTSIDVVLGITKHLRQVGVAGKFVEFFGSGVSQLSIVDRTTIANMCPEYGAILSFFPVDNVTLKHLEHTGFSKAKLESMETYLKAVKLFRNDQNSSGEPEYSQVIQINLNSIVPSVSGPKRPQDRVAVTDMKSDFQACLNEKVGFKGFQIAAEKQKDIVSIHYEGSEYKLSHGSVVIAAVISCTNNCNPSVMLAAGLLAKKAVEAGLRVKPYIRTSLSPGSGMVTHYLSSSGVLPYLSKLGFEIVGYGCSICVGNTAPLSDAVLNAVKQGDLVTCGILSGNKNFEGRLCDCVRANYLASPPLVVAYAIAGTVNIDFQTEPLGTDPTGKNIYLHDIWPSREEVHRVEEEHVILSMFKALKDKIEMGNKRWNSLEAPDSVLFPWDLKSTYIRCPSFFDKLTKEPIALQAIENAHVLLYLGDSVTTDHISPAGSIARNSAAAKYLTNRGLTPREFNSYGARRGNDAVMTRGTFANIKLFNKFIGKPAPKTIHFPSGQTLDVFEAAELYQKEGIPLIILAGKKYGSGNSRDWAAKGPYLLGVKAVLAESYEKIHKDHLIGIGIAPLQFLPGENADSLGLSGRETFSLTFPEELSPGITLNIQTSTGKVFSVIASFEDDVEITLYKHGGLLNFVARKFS
UniProt Q8N129: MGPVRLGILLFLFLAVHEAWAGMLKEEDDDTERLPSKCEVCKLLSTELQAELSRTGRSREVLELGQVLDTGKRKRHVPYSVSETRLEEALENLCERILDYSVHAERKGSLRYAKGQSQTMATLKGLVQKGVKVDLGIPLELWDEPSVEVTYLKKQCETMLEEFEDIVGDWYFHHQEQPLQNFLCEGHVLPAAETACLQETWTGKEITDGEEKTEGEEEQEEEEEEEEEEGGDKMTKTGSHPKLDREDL
UniProt Q6UXD5: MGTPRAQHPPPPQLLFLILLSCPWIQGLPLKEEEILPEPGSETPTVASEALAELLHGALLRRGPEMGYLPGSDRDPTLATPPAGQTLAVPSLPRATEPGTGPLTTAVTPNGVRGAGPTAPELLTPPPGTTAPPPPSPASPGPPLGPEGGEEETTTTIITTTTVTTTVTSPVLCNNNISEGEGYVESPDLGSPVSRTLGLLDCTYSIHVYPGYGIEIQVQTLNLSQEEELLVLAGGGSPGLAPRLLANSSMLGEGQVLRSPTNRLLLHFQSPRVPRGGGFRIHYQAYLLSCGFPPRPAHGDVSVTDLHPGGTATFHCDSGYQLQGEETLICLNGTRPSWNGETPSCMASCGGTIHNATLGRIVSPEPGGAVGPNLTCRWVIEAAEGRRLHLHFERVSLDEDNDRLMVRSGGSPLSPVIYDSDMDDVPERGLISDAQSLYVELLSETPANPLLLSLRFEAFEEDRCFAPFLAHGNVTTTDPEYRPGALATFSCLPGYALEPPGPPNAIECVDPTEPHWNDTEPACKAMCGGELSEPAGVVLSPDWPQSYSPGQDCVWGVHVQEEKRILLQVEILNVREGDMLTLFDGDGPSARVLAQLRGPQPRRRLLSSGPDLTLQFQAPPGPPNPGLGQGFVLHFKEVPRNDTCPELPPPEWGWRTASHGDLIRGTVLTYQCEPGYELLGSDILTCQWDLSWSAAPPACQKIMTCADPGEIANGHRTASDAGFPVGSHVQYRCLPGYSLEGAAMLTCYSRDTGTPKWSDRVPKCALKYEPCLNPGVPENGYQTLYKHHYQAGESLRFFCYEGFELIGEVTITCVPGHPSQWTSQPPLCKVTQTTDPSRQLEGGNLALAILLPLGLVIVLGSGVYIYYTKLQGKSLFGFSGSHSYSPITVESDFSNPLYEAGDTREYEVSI

Compound: Nc1ncnc2c1ncn2[C@@H]1O[C@H](COP(=O)(O)OP(=O)(O)NP(=O)(O)O)[C@@H](O)[C@H]1O [adenylyl imidodiphosphate]
Assay: NP40-soluble protein abundance relative to vehicle (solubility fold change) (ratio); higher = more soluble protein in presence of AMP-PNP
Method in brief: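 Jurkat crude lysate prepared with a Dounce homogeniser was treated at eight concentrations spanning 0.1 to 10 mM, 10 min at room temperature then 3 min at 37 °C. Solubilisation with 0.8% NP40 and benzonase and ultracentrifugation preceded TMT labelling of the supernatant for LC-MS/MS. Fold change against the detergent-processed vehicle was determined per replicate from vsn-normalised intensities, across three independent experiments.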

Target	NP40-soluble protein abundance (concentration: 0.1mM)	NP40-soluble protein abundance (concentration: 0.5mM)
A0A087X176|Q6ZRP7 (UniProt Q6ZRP7)	0.997 ± 0.024	1.01 ± 0.017
A0A087X1Z1|A0A0G2JPW5|A0A0G2JQX1|A0A0G2JSA7|Q96RT8 and related entries (UniProt Q96RT8)	1.006 ± 0.0012	1.01 ± 0.056
A0A087WXS7|O43681 (UniProt O43681)	0.954 ± 0.027	0.947 ± 0.044
A0A0D9SFB1|A0A0D9SFE4|A0A0U1RQP1|Q05193 and related entries (UniProt Q05193)	0.991 ± 0.046	0.989 ± 0.067
A0A0C4DG89|Q7L014 (UniProt Q7L014)	0.9952 ± 0.0038	0.9912 ± 0.0078
A0A087WYY4|O75386 and related entries (UniProt O75386)	1.01 ± 0.027	1.03 ± 0.035
A0A087X0N3|Q96MY1 (UniProt Q96MY1)	0.974 ± 0.013	0.977 ± 0.027
A0A087X0M1|H0YAA8 and related entries (UniProt Q9H204)	1.02 ± 0.02	1.05 ± 0.069
A0A087WW88|Q9UQN3 (UniProt Q9UQN3)	1.01 ± 0.026	1.02 ± 0.049
A0A0A0MRB7|P15923-2|X6REB3 (UniProt P15923)	0.976 ± 0.018	0.985 ± 0.047
A0A087WYL7|G3V4A5 and related entries (UniProt O75586)	0.999 ± 0.025	0.976 ± 0.054
A0A0A0MRJ0|Q5VT25 and related entries (UniProt Q5VT25)	0.984 ± 0.038	0.9968 ± 0.0096
A0A0U1RRM6|Q8N8S7 and related entries (UniProt Q8N8S7)	0.99 ± 0.029	0.99 ± 0.065
A0A0C4DFY0|Q14242 and related entries (UniProt Q14242)	0.968 ± 0.012	0.981 ± 0.013
A0A0A0MSE9|B7WPA5 and related entries (UniProt Q96CS7)	1 ± 0.011	0.988 ± 0.014
A0A0A6YY96|P48200 (UniProt P48200)	0.996 ± 0.04	1.01 ± 0.074
A0A087WY00|F8W6H6 and related entries (UniProt Q9Y4I1)	1.52 ± 0.25	1.72 ± 0.28
A0A087WWM4|F8WAN9 and related entries (UniProt Q9P2T1)	1.01 ± 0.035	1.04 ± 0.043
A0A0D9SEJ5|F5GY05 and related entries (UniProt Q96EK7)	0.991 ± 0.057	0.959 ± 0.018
A0A0A0MRI1|Q8IXQ4 (UniProt Q8IXQ4)	0.994 ± 0.022	1.06 ± 0.08
A0A087WZV0|O43314 and related entries (UniProt O43314)	1.05 ± 0.054	1.02 ± 0.013
A0A087X1I8|Q7Z3E5 and related entries (UniProt Q7Z3E5)	1 ± 0.037	0.986 ± 0.03

Given in CSV form: entries from further up
Target,NP40-soluble protein abundance (concentration: 0.1mM),NP40-soluble protein abundance (concentration: 0.5mM)
A0A087X176|Q6ZRP7 (UniProt Q6ZRP7),0.997 ± 0.024,1.01 ± 0.017
A0A087X1Z1|A0A0G2JPW5|A0A0G2JQX1|A0A0G2JSA7|Q96RT8 and related entries (UniProt Q96RT8),1.006 ± 0.0012,1.01 ± 0.056
A0A087WXS7|O43681 (UniProt O43681),0.954 ± 0.027,0.947 ± 0.044
A0A0D9SFB1|A0A0D9SFE4|A0A0U1RQP1|Q05193 and related entries (UniProt Q05193),0.991 ± 0.046,0.989 ± 0.067
A0A0C4DG89|Q7L014 (UniProt Q7L014),0.9952 ± 0.0038,0.9912 ± 0.0078
A0A087WYY4|O75386 and related entries (UniProt O75386),1.01 ± 0.027,1.03 ± 0.035
A0A087X0N3|Q96MY1 (UniProt Q96MY1),0.974 ± 0.013,0.977 ± 0.027
A0A087X0M1|H0YAA8 and related entries (UniProt Q9H204),1.02 ± 0.02,1.05 ± 0.069
A0A087WW88|Q9UQN3 (UniProt Q9UQN3),1.01 ± 0.026,1.02 ± 0.049
A0A0A0MRB7|P15923-2|X6REB3 (UniProt P15923),0.976 ± 0.018,0.985 ± 0.047
A0A087WYL7|G3V4A5 and related entries (UniProt O75586),0.999 ± 0.025,0.976 ± 0.054
A0A0A0MRJ0|Q5VT25 and related entries (UniProt Q5VT25),0.984 ± 0.038,0.9968 ± 0.0096
A0A0U1RRM6|Q8N8S7 and related entries (UniProt Q8N8S7),0.99 ± 0.029,0.99 ± 0.065
A0A0C4DFY0|Q14242 and related entries (UniProt Q14242),0.968 ± 0.012,0.981 ± 0.013
A0A0A0MSE9|B7WPA5 and related entries (UniProt Q96CS7),1 ± 0.011,0.988 ± 0.014
A0A0A6YY96|P48200 (UniProt P48200),0.996 ± 0.04,1.01 ± 0.074
A0A087WY00|F8W6H6 and related entries (UniProt Q9Y4I1),1.52 ± 0.25,1.72 ± 0.28
A0A087WWM4|F8WAN9 and related entries (UniProt Q9P2T1),1.01 ± 0.035,1.04 ± 0.043
A0A0D9SEJ5|F5GY05 and related entries (UniProt Q96EK7),0.991 ± 0.057,0.959 ± 0.018
A0A0A0MRI1|Q8IXQ4 (UniProt Q8IXQ4),0.994 ± 0.022,1.06 ± 0.08

Continuation.

Target	NP40-soluble protein abundance (concentration: 0.1mM)	NP40-soluble protein abundance (concentration: 0.5mM)
A0A087X256|Q2M389 (UniProt Q2M389)	1.01 ± 0.035	1.02 ± 0.055
A0A0A0MRS4|Q9NVV0 (UniProt Q9NVV0)	0.9993 ± 0.0054	1.08 ± 0.032
A0A0A0MQY7|Q5VU97 (UniProt Q5VU97)	0.9917 ± 0.0027	1.008 ± 0.00073
A0A087X0Q9|Q9BVL4 (UniProt Q9BVL4)	1.02 ± 0.037	1.03 ± 0.029
A0A0U1RR27|Q7Z401 and related entries (UniProt Q7Z401)	1.131 ± 0.011	1.01 ± 0.034
A0A0G2JR50|Q86SQ7 and related entries (UniProt Q86SQ7)	0.987 ± 0.022	0.966 ± 0.032
A0A087X1S7|P09326 (UniProt P09326)	0.975 ± 0.017	0.9843 ± 0.0087
A0A0C4DH44|P62888 (UniProt P62888)	1.02 ± 0.051	1 ± 0.019
A0A0A0MRV0|Q9P2E9 (UniProt Q9P2E9)	1.01 ± 0.067	1.04 ± 0.11
A0A0G2JLR5|A0A0G2JMW4|Q02833 and related entries (UniProt Q02833)	1.02 ± 0.037	1.02 ± 0.027
A0A0C4DFZ2|P15289 (UniProt P15289)	1.01 ± 0.036	0.998 ± 0.014
A0A087X188|Q9UBW5 (UniProt Q9UBW5)	0.995 ± 0.035	0.998 ± 0.035
A0A0D9SF28|F5GXV7 and related entries (UniProt Q8NFP9)	1.02 ± 0.018	1 ± 0.019
A0A087WYW3|P30414 (UniProt P30414)	0.996 ± 0.04	1.02 ± 0.013
A0A087X112|Q9H9A7 (UniProt Q9H9A7)	1.02 ± 0.018	1 ± 0.024
A0A0C4DGT4|Q643R3 (UniProt Q643R3)	1.02 ± 0.021	0.995 ± 0.034
A0A0C4DFM2|Q6ZN55 and related entries (UniProt Q6ZN55)	1.03 ± 0.035	0.999 ± 0.015
A0A087WWP8|A0A0C4DGT8|Q5VWQ0 (UniProt Q5VWQ0)	1.04 ± 0.012	1.05 ± 0.05
A0A087WYU2|Q96S19 (UniProt Q96S19)	1.01 ± 0.021	0.9952 ± 0.0082
A0JP02 and related entries (UniProt Q9HAU0)	1.01 ± 0.035	1.01 ± 0.042
A0A096LPI6|A0A0B4J2D5|P30042 (UniProt P30042)	0.972 ± 0.024	1 ± 0.049
A0A0A0MSY9|Q92800 and related entries (UniProt Q92800)	0.995 ± 0.031	0.988 ± 0.02

Target	NP40-soluble protein abundance (concentration: 0.1mM)	NP40-soluble protein abundance (concentration: 0.5mM)
A0A140T998|P28062 and related entries (UniProt X5D2R7+Q5JNW7+P28062)	1.02 ± 0.032	1 ± 0.066
A0A087X0R0|F5H6S1 and related entries (UniProt O15550)	0.985 ± 0.0055	0.9711 ± 0.0061
A0A087X1K6|H0YK05 and related entries (UniProt Q9Y2Y9)	1.05 ± 0.04	0.979 ± 0.031
A0A0A0MR66|P98175-4 (UniProt P98175)	1.01 ± 0.041	1.01 ± 0.025
A0A0C4DG78|M0R3C6 and related entries (UniProt Q8TBC5)	1.01 ± 0.017	1.03 ± 0.02
A0A0B4J1W0|F5GY88 and related entries (UniProt O75448)	1.01 ± 0.015	0.985 ± 0.038
A0A087WY82|Q9Y624 (UniProt Q9Y624)	0.998 ± 0.012	0.981 ± 0.017
A0A087WWW9|O95999 (UniProt O95999)	0.97 ± 0.035	0.989 ± 0.032
A0A0A0MR51|O60427 (UniProt O60427)	1.03 ± 0.017	1.01 ± 0.05
A0A087WZN1|O43837 (UniProt O43837)	0.984 ± 0.025	1 ± 0.051
A0A0A0MSV9|A0A0G2JH37|A0A0G2JKZ1|A2AB90 and related entries (UniProt O15533)	1.04 ± 0.019	1.05 ± 0.044
A0A087X239|Q6PCB5 (UniProt Q6PCB5)	1.02 ± 0.014	1.008 ± 0.0032
A0A0C4DGT6|Q96AP0 and related entries (UniProt Q96AP0)	1.02 ± 0.038	1.01 ± 0.043
UHRF1BP1L (UniProt A0JNW5)	0.994 ± 0.015	1.03 ± 0.041
A0A0C4DGA2|O75521 and related entries (UniProt O75521)	0.99 ± 0.032	1.02 ± 0.035
A0A087X243|P09211 (UniProt P09211)	0.998 ± 0.019	1 ± 0.056
A0A0G2JIS2|Q96KQ7 and related entries (UniProt Q96KQ7)	1.03 ± 0.018	0.992 ± 0.025
A0A0J9YYJ0|Q8N129 (UniProt Q8N129)	1.025 ± 0.0071	1.02 ± 0.016
A0A0C4DG44|O43464 and related entries (UniProt O43464)	0.975 ± 0.026	0.9839 ± 0.0063
A0A0A0MRN1|Q5T8I9 (UniProt Q5T8I9)	0.993 ± 0.0044	1.006 ± 0.0095
A0A087X1Z3|Q9UL46 (UniProt Q9UL46)	0.995 ± 0.059	1.06 ± 0.11
A0A0J9YWL0|Q9Y4K1 (UniProt Q9Y4K1)	1.01 ± 0.029	1.01 ± 0.022

Target	NP40-soluble protein abundance (concentration: 0.1mM)	NP40-soluble protein abundance (concentration: 0.5mM)
A0A0A0MR39|Q9P2K5-3|A0A0A0MQW0 (UniProt Q9P2K5)	1.02 ± 0.043	1.02 ± 0.052
UniProt A0MZ66 and related entries	0.9639 ± 0.0025	1 ± 0.041
A0A0A0MSA9|A0A0C4DG49|P15151 and related entries (UniProt P15151)	0.9738 ± 0.0023	1.04 ± 0.042
A0A0A0MTD9|A0A0A0MTE6|A0A0B4J1S7|E9PMT0 and related entries (UniProt Q9Y2R2)	0.992 ± 0.045	1.01 ± 0.019
A0A0G2JNW7|Q9Y666 (UniProt Q9Y666)	0.99 ± 0.012	0.9769 ± 0.0065
A0A0A0MRR1|Q5VV50 and related entries (UniProt Q5VV52)	1.025 ± 0.0086	1.02 ± 0.015
A0A0D9SF53|A0A0D9SFB3|A0A0D9SG12|O00571 (UniProt O00571)	1.03 ± 0.016	1.01 ± 0.075
A0A0C4DGW2|P57768 and related entries (UniProt P57768)	0.996 ± 0.016	1.01 ± 0.04
A2A274 and related entries (UniProt Q99798)	1.012 ± 0.0089	0.975 ± 0.032
A0A0A0MSM3|P46939 and related entries (UniProt P46939)	0.983 ± 0.016	0.991 ± 0.029
SH3PXD2B (UniProt A1X283)	1.01 ± 0.018	0.972 ± 0.038
A0A0A6YYL4|P57737-3 (UniProt P57737)	1.03 ± 0.022	1 ± 0.025
A0A0C4DGH3|Q9Y6R0 (UniProt Q9Y6R0)	0.994 ± 0.051	0.995 ± 0.11
A0A0A0MTG1|A0A0G2JIA5|A0A140T8Y0|A0A140TA35|A0A140TA36|A0A140TA40|A0A140TA45|Q5ST30 and related entries (UniProt Q5ST30)	1 ± 0.021	0.9976 ± 0.0096
A0A0A6YYC8|I3L1I5 (UniProt I3L1I5)	1.01 ± 0.017	1.0188 ± 0.0007
A0A0U1RRB3|Q8IYT2 (UniProt Q8IYT2)	1.03 ± 0.044	0.994 ± 0.037
A0A087WYL5|Q6UXD5-3|Q6UXD5-5|Q6UXD5-6|Q6UXD5 and related entries (UniProt Q6UXD5)	0.977 ± 0.013	0.991 ± 0.014
A0A0U1RRB6|Q9Y2D4 (UniProt Q9Y2D4)	1.01 ± 0.017	0.99 ± 0.037
A0A0U1RQT7|A0A0U1RQY7|Q8IXA3 and related entries (UniProt Q9HCP0)	1.01 ± 0.027	1.04 ± 0.042
A0A087X1G7|A0A0B4J1S4|O60613 (UniProt O60613)	1.02 ± 0.051	1.02 ± 0.022
A0A0D9SGJ6|J3KQV8 and related entries (UniProt O43426)	0.989 ± 0.041	0.965 ± 0.08
A0A0D9SEU5|Q6VN20 and related entries (UniProt Q6VN20)	0.994 ± 0.031	0.988 ± 0.032
